Reference: patent publication US8227422B2, “Peptides and compounds that bind to a receptor” (Glaxosmithkline LLC, priority 1996, dated 2012)
pIC50: −log10 of the molar value. Part of at least one peptide drawing is inferred or uncertain, most often the ends. Where a SMILES comes first, the peptide text is derived from it. Bridges are numbered along the chain shown (N, C = ends). The star is where a group is joined. Bn = c1ccc(C*)cc1

What was measured:
[1] = target: T1, TPO-R (Homo sapiens, UniProt P40238); assay: Competition binding assay (equilibrium binding ELISA, MBP-TPO156 tracer) on immobilized TPO-R; details: Table 5; read-out: IC50
T1 construct: made in house
T1 sequence (P40238 26-491 limits assumed): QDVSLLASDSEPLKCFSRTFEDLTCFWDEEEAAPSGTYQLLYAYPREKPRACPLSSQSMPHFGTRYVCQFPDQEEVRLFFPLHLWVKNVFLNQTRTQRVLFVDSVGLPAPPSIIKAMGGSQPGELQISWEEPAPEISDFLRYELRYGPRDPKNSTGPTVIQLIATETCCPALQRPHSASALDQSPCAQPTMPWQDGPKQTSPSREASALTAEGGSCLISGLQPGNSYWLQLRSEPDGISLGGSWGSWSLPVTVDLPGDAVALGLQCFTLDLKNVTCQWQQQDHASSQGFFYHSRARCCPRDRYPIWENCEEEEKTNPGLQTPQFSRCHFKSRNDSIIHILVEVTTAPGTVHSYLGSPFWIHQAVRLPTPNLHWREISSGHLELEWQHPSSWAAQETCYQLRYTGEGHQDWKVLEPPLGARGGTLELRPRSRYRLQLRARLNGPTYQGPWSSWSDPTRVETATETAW
Protocol: A variety of methods can be used to evaluate IC50 values. For example, an equilibrium binding ELISA assay, using either MBP-TPO or lacI-peptide tracer, was used to determine whether the peptides inhibit the binding of TPO to the extracellular domain of the TPO receptor. Typically, the IC50 value were determined using the free peptide. The IC50 value can be determined using the free peptide, which optionally can be C-terminally amidated, or can be prepared as an ester or other carboxy amide.
Binding affinities of chemically synthesized peptides for TPO-R were measured in a competition binding assay. The wells of a microtiter plate were coated with 1 mg streptavidin, blocked with PBS/1% BSA, followed by 50 ng of biotinylated anti-receptor immobilizing antibody (Ab179). The wells were then treated with a 1:10 dilution of soluble TPO-R harvest. Various concentrations of peptide or peptide mimetic were mixed with a constant amount of a truncated form of TPO consisting of residues 1-156 fused to the C-terminus of maltose binding protein (MBP-TPO156). The peptide MBP-TPO156 mixtures were added to the TPO-R coated wells, incubated for 2 hours at 4° C. and then washed with PBS. The amount of MBP-TPO156 that was bound at equilibrium was measured by adding a rabbit anti-sera directed against MBP, followed by alkaline phosphatase conjugated goat anti-rabbit IgG. The amount of alkaline phosphatase in each well was then determined using standard methods.
The assay is conducted over a range of peptide concentrations and the results are graphed such that the y axis represents the amount of bound MBP-TPO156 and the x axis represents the concentration of peptide or peptide mimetic.

[2] = target: T2, human TPO-R (transfected Ba/F3 cells) (Homo sapiens, UniProt P40238); assay: Thrombopoietin dependent cell proliferation assay (MTT), TPO-R transfected Ba/F3 cells; format: cell-based; details: Table 5, substitutions in cyclized compound; read-out: EC50 (nM) Cell Prolif.
T2 construct: Murine IL-3 dependent Ba/F3 cells were transfected with full length human TPO-R; expressed in transfected cells; host or cells: murine Ba/F3 cells
T2 sequence (P40238 26-635): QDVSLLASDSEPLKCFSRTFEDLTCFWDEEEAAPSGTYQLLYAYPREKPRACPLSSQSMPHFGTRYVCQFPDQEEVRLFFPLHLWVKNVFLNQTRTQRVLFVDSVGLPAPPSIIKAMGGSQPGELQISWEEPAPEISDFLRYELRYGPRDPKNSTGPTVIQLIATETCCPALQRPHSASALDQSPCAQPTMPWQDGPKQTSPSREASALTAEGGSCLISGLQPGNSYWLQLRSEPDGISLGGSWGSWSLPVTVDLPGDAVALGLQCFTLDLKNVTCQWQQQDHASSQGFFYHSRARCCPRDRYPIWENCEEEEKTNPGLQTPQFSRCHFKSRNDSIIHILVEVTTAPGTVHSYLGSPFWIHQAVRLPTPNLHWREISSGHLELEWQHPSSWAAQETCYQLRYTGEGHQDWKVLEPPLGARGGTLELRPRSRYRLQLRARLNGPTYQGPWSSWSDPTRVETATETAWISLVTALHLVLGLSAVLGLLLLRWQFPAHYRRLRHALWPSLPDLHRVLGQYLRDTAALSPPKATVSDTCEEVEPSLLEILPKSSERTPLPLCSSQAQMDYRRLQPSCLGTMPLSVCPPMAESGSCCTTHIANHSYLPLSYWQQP

| Structure (SMILES) | pIC50 [1] | EC50 [2] [nM] |
| --- | --- | --- |
| CC[C@H](C)[C@@H]1NC(=O)[C@H](Cc2c[nH]c3ccccc23)NC(=O)[C@H](CCC(=O)O)NC(=O)[C@H](CCCNC(=N)N)NC(=O)[C@H](CC(C)C)NC(=O)[C@H]([C@@H](C)O)NC(=O)[C@@H]2CCCN2C(=O)CNC(=O)[C@H](CC(=O)O)NC(=O)[C@H](C)NC(=O)[C@@H](N)CSSC[C@@H](C(N)=O)NC(=O)[C@H](C)N(C)C(=O)[C@H](CO)NC1=O [F-(N-Me-Ala)] (HELM PEPTIDE1{C.A.D.G.P.T.L.R.E.W.I.S.[meA].C.[am]}$PEPTIDE1,PEPTIDE1,1:R3-14:R3$$$V2.0) | ≥ 3.70 | < 200000 |
| CC[C@H](C)[C@@H]1NC(=O)[C@H](Cc2c[nH]c3ccccc23)NC(=O)[C@H](CCC(=O)O)NC(=O)[C@H](CCCNC(=N)N)NC(=O)[C@H](CC(C)C)NC(=O)[C@H]([C@@H](C)O)NC(=O)[C@@H]2CCCN2C(=O)CNC(=O)[C@H](CC(=O)O)NC(=O)[C@H](C)NC(=O)[C@@H](N)CSSC[C@@H](C(N)=O)NC(=O)[C@H](COCc2ccccc2)NC(=O)[C@H](CO)NC1=O [F-(Ser(Bzl))] (H-CADGPTLREWISS(Bn)C-NH2; disulfide 1-14) | ≥ 6.30 | < 500 |
| CC[C@H](C)[C@@H]1NC(=O)[C@H](Cc2c[nH]c3ccccc23)NC(=O)[C@H](CCC(=O)O)NC(=O)[C@H](CCCNC(=N)N)NC(=O)[C@H](CC(C)C)NC(=O)[C@H]([C@@H](C)O)NC(=O)[C@@H]2CCCN2C(=O)CNC(=O)[C@H](CC(=O)O)NC(=O)[C@H](C)NC(=O)[C@@H](N)CSSC[C@@H](C(N)=O)NC(=O)[C@H](Cc2ccc(Cl)cc2)NC(=O)[C@H](CO)NC1=O [F-(p-Cl-Phe)] (HELM PEPTIDE1{C.A.D.G.P.T.L.R.E.W.I.S.[O=C([C@H](Cc1ccc(Cl)cc1)N[*:1])[*:2]].C.[am]}$PEPTIDE1,PEPTIDE1,1:R3-14:R3$$$V2.0) | ≥ 6.30 | < 500 |
| CC[C@H](C)[C@@H]1NC(=O)[C@H](Cc2c[nH]c3ccccc23)NC(=O)[C@H](CCC(=O)O)NC(=O)[C@H](CCCNC(=N)N)NC(=O)[C@H](CC(C)C)NC(=O)[C@H]([C@@H](C)O)NC(=O)[C@@H]2CCCN2C(=O)CNC(=O)[C@H](CC(=O)O)NC(=O)[C@H](C)NC(=O)[C@@H](N)CSSC[C@@H](C(N)=O)NC(=O)[C@@H](C)NC(=O)[C@H](CO)NC1=O [F-D-Ala] (HELM PEPTIDE1{C.A.D.G.P.T.L.R.E.W.I.S.[dA].C.[am]}$PEPTIDE1,PEPTIDE1,1:R3-14:R3$$$V2.0) | ≥ 6.30 | < 200000 |
| CC[C@H](C)[C@@H]1NC(=O)[C@H](Cc2c[nH]c3ccccc23)NC(=O)[C@H](CCC(=O)O)NC(=O)[C@H](CCCNC(=N)N)NC(=O)[C@H](CC(C)C)NC(=O)[C@H]([C@@H](C)O)NC(=O)[C@@H]2CCCN2C(=O)CNC(=O)[C@H](CC(=O)O)NC(=O)[C@H](C)NC(=O)[C@@H](N)CSSC[C@@H](C(N)=O)NC(=O)[C@@H](Cc2ccccc2)NC(=O)[C@H](CO)NC1=O [F-D-Phe] (HELM PEPTIDE1{C.A.D.G.P.T.L.R.E.W.I.S.[dF].C.[am]}$PEPTIDE1,PEPTIDE1,1:R3-14:R3$$$V2.0) | ≥ 6.30 | < 200000 |
| CC[C@H](C)[C@@H]1NC(=O)[C@H](Cc2c[nH]c3ccccc23)NC(=O)[C@H](CCC(=O)O)NC(=O)[C@H](CCCNC(=N)N)NC(=O)[C@H](CC(C)C)NC(=O)[C@H]([C@@H](C)O)NC(=O)[C@@H]2CCCN2C(=O)CNC(=O)[C@H](CC(=O)O)NC(=O)[C@H](C)NC(=O)[C@@H](N)CSSC[C@@H](C(N)=O)NC(=O)[C@H](Cc2cccs2)NC(=O)[C@H](CO)NC1=O [F-Thi] (HELM PEPTIDE1{C.A.D.G.P.T.L.R.E.W.I.S.[O=C([C@H](Cc1cccs1)N[*:1])[*:2]].C.[am]}$PEPTIDE1,PEPTIDE1,1:R3-14:R3$$$V2.0) | ≥ 6.30 | < 500 |
| CC[C@H](C)[C@@H]1NC(=O)[C@H](Cc2c[nH]c3ccccc23)NC(=O)[C@H](CCC(=O)O)NC(=O)[C@H](CCCNC(=N)N)NC(=O)[C@H](CC(C)C)NC(=O)[C@H]([C@@H](C)O)NC(=O)[C@@H]2CCCN2C(=O)CNC(=O)[C@H](CC(=O)O)NC(=O)[C@H](C)NC(=O)[C@@H](N)CSSC[C@@H](C(N)=O)NC(=O)[C@H](Cc2ccccc2)NC(=O)[C@H](C(C)C)N(C)C1=O [S-(N-Me-Val)] (HELM PEPTIDE1{C.A.D.G.P.T.L.R.E.W.I.[meV].F.C.[am]}$PEPTIDE1,PEPTIDE1,1:R3-14:R3$$$V2.0) | ≥ 3.70 | < 200000 |
| CCCC[C@@H]1NC(=O)[C@H]([C@@H](C)CC)NC(=O)[C@H](Cc2c[nH]c3ccccc23)NC(=O)[C@H](CCC(=O)O)NC(=O)[C@H](CCCNC(=N)N)NC(=O)[C@H](CC(C)C)NC(=O)[C@H]([C@@H](C)O)NC(=O)[C@@H]2CCCN2C(=O)CNC(=O)[C@H](CC(=O)O)NC(=O)[C@H](C)NC(=O)[C@@H](N)CSSC[C@@H](C(N)=O)NC(=O)[C@H](Cc2ccccc2)NC1=O [S-(Nor-Leu)] (HELM PEPTIDE1{C.A.D.G.P.T.L.R.E.W.I.[Nle].F.C.[am]}$PEPTIDE1,PEPTIDE1,1:R3-14:R3$$$V2.0) | ≥ 6.30 | < 500 |
| CC[C@H](C)[C@@H]1NC(=O)[C@H](Cc2c[nH]c3ccccc23)NC(=O)[C@H](CCC(=O)O)NC(=O)[C@H](CCCNC(=N)N)NC(=O)[C@H](CC(C)C)NC(=O)[C@H]([C@@H](C)O)NC(=O)[C@@H]2CCCN2C(=O)CNC(=O)[C@H](CC(=O)O)NC(=O)[C@H](C)NC(=O)[C@@H](N)CSSC[C@@H](C(N)=O)NC(=O)[C@H](Cc2ccccc2)NC(=O)[C@H](C(C)(C)C)NC1=O [S-(t-Bu-Gly)] (HELM PEPTIDE1{C.A.D.G.P.T.L.R.E.W.I.[CC(C)(C)[C@H](N[*:1])C(=O)[*:2]].F.C.[am]}$PEPTIDE1,PEPTIDE1,1:R3-14:R3$$$V2.0) | ≥ 6.30 | < 200000 |
| CC[C@H](C)[C@@H]1NC(=O)[C@H](Cc2c[nH]c3ccccc23)NC(=O)[C@H](CCC(=O)O)NC(=O)[C@H](CCCNC(=N)N)NC(=O)[C@H](CC(C)C)NC(=O)[C@H]([C@@H](C)O)NC(=O)[C@@H]2CCCN2C(=O)CNC(=O)[C@H](CC(=O)O)NC(=O)[C@H](C)NC(=O)[C@@H](N)CSSC[C@@H](C(N)=O)NC(=O)[C@H](Cc2ccccc2)NC(=O)[C@@H](C)NC1=O [S-D-Ala] (HELM PEPTIDE1{C.A.D.G.P.T.L.R.E.W.I.[dA].F.C.[am]}$PEPTIDE1,PEPTIDE1,1:R3-14:R3$$$V2.0) | ≥ 3.70 | < 200000 |
| CC[C@H](C)[C@@H]1NC(=O)[C@H](Cc2c[nH]c3ccccc23)NC(=O)[C@H](CCC(=O)O)NC(=O)[C@H](CCCNC(=N)N)NC(=O)[C@H](CC(C)C)NC(=O)[C@H]([C@@H](C)O)NC(=O)[C@@H]2CCCN2C(=O)CNC(=O)[C@H](CC(=O)O)NC(=O)[C@H](C)NC(=O)[C@@H](N)CSSC[C@@H](C(N)=O)NC(=O)[C@H](Cc2ccccc2)NC(=O)[C@@H](CO)NC1=O [S-D-Ser] (HELM PEPTIDE1{C.A.D.G.P.T.L.R.E.W.I.[dS].F.C.[am]}$PEPTIDE1,PEPTIDE1,1:R3-14:R3$$$V2.0) | ≥ 6.30 | < 500 |
| CC[C@H](C)[C@@H]1NC(=O)[C@H](Cc2c[nH]c3ccccc23)NC(=O)[C@H](CCC(=O)O)NC(=O)[C@H](CCCNC(=N)N)NC(=O)[C@H](CC(C)C)NC(=O)[C@H]([C@@H](C)O)NC(=O)[C@@H]2CCCN2C(=O)CNC(=O)[C@H](CC(=O)O)NC(=O)[C@H](C)NC(=O)[C@@H](N)CSSC[C@@H](C(N)=O)NC(=O)[C@H](Cc2ccccc2)NC(=O)CN(C)C1=O [S-Sar] (HELM PEPTIDE1{C.A.D.G.P.T.L.R.E.W.I.[Sar].F.C.[am]}$PEPTIDE1,PEPTIDE1,1:R3-14:R3$$$V2.0) | ≥ 6.30 | < 200000 |
